Measured values: ChEMBL document CHEMBL3097987, “Pyrrolizines: Promising scaffolds for anticancer drugs” (Bioorg Med Chem, 2014)
pIC50: −log10 of the molar value.

Molecular target: T1, Aromatase (Homo sapiens, UniProt P11511)
T1 sequence (P11511 whole entry): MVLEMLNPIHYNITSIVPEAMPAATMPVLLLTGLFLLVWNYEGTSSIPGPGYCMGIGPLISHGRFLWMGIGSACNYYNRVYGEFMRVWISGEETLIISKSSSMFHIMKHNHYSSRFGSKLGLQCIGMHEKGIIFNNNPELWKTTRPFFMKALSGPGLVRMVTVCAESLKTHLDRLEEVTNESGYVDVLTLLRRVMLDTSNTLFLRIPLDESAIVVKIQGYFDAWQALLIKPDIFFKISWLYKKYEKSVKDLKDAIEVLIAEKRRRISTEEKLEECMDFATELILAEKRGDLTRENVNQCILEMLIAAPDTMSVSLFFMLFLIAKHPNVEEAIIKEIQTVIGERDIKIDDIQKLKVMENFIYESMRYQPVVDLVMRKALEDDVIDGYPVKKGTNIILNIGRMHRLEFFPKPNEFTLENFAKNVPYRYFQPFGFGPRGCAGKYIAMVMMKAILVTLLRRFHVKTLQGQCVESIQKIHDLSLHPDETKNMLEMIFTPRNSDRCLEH
Assay: Inhibition of aromatase (unknown origin)

- pIC50: 5.80
Compound: O=C1/C(=C\c2cccnc2)C(c2ccc(OC(F)(F)F)cc2)n2cccc21 (stereo unspecified)
